According to the supplement of paper PMC10849652:
This is one part of the list.

By UniProt entry, the sequences of proteins in these tests, tags left out. Where a name states a change or a piece, a line headed by the entry shows the natural chain unless it says otherwise.
UniProt P47756, whole entry, looked up: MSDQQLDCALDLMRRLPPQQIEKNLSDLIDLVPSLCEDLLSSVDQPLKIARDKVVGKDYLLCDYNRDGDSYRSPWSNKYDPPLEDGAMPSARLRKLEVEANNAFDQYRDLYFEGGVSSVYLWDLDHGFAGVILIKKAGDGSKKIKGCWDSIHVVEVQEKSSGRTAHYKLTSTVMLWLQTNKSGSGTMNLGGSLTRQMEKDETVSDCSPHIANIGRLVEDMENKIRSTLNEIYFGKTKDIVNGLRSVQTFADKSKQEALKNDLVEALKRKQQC
UniProt O43709: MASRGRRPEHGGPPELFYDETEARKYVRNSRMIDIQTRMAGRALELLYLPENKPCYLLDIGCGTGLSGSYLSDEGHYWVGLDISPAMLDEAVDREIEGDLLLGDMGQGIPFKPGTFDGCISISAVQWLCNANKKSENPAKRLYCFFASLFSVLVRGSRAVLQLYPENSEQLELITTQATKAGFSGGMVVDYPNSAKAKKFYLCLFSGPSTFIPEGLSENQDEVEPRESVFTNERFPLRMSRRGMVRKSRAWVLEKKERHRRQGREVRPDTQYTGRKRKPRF
UniProt Q9H0W9: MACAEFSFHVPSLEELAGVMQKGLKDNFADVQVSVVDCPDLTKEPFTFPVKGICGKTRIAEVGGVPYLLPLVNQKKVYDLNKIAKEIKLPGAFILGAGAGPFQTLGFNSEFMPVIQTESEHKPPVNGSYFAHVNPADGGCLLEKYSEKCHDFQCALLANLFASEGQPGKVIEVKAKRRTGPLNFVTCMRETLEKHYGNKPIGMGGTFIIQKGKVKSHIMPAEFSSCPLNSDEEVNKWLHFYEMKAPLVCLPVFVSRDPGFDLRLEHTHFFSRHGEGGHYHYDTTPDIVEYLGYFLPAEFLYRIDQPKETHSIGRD
UniProt Q96B23: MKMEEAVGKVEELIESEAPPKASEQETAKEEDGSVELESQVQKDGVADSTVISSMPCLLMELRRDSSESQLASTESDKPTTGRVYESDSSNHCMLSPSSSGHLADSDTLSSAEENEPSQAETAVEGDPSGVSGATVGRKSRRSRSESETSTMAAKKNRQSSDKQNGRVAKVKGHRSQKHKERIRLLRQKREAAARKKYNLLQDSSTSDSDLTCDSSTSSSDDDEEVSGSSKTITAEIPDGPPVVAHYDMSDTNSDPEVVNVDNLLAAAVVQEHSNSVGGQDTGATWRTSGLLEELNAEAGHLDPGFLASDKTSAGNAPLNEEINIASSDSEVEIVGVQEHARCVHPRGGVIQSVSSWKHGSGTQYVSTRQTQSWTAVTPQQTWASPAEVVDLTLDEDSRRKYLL
UniProt Q9BWL3: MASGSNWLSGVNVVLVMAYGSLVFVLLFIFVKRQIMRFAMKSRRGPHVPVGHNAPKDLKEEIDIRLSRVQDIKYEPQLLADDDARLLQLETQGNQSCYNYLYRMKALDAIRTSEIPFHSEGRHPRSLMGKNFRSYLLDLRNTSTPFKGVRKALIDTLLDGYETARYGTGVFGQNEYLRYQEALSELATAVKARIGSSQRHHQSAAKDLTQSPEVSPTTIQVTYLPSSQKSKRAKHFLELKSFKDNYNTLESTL
UniProt P27797, whole entry, looked up: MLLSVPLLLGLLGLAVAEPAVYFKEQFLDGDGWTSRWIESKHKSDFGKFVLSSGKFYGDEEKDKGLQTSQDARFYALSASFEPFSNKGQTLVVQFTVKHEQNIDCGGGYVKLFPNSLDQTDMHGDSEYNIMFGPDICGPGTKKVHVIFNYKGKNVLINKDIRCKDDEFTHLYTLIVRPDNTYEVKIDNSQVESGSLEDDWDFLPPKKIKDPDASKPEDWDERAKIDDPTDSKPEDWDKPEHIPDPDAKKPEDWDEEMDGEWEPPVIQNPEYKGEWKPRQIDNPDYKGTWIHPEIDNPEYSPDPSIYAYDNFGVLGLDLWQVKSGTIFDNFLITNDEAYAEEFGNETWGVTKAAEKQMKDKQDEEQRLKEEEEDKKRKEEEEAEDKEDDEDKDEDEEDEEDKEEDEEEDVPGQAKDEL
UniProt Q9NZ63: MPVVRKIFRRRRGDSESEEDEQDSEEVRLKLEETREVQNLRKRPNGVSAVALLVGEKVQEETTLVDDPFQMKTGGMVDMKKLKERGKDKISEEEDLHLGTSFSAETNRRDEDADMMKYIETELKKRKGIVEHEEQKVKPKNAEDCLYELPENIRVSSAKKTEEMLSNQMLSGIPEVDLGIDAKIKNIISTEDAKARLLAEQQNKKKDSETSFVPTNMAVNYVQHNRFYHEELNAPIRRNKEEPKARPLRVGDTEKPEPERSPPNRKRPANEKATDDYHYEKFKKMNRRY
UniProt P49069: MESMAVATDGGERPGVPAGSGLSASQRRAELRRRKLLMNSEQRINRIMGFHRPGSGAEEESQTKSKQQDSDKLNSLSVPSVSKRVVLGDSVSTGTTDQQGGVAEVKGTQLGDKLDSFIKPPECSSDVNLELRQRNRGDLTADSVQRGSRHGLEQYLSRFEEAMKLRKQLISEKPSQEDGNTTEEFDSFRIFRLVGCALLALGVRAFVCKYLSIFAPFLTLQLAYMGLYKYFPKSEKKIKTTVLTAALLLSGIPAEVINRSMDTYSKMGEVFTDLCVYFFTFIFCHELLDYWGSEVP
UniProt Q14444, whole entry, looked up: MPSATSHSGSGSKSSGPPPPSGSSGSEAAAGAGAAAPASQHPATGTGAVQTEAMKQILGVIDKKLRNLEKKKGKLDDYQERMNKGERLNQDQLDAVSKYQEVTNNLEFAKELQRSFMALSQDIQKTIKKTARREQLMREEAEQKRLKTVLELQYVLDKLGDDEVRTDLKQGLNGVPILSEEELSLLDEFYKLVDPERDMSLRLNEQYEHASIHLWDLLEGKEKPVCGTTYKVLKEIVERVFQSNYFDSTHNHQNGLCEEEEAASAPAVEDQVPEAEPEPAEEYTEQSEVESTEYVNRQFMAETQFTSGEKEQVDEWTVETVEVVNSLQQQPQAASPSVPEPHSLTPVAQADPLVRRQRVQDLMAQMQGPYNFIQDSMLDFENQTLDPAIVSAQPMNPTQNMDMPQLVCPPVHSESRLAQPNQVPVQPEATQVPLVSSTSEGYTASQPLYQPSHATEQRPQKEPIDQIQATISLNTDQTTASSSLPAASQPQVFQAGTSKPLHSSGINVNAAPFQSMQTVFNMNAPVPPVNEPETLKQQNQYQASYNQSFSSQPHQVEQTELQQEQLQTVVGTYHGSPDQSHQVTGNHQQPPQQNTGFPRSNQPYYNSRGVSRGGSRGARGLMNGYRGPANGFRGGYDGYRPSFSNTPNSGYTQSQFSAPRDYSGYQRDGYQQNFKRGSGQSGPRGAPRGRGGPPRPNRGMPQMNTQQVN
UniProt O14523: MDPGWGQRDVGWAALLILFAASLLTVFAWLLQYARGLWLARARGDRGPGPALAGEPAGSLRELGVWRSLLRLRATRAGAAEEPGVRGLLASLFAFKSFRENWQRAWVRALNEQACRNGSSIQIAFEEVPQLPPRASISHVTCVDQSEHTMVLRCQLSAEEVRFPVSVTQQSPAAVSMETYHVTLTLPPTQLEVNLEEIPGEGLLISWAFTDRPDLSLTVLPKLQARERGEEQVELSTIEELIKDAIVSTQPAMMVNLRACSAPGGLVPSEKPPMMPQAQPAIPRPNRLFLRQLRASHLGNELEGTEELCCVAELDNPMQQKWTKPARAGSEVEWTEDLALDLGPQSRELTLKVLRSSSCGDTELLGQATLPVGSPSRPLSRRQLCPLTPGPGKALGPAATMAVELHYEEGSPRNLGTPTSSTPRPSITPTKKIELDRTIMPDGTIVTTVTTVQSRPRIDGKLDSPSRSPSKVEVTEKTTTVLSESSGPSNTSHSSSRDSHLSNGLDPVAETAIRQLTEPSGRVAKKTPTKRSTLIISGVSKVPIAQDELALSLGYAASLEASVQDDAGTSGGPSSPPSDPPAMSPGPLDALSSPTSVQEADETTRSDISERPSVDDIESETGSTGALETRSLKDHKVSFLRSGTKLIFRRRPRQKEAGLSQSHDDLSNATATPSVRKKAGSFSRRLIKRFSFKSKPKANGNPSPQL
UniProt A6NDU8: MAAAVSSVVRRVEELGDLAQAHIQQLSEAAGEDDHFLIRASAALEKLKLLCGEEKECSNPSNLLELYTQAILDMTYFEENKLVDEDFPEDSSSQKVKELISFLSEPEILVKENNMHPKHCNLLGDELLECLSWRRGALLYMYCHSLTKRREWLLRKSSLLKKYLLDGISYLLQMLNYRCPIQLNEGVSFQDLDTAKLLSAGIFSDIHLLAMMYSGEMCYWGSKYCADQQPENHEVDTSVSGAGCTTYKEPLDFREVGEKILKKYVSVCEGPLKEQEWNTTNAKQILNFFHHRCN
UniProt O95873: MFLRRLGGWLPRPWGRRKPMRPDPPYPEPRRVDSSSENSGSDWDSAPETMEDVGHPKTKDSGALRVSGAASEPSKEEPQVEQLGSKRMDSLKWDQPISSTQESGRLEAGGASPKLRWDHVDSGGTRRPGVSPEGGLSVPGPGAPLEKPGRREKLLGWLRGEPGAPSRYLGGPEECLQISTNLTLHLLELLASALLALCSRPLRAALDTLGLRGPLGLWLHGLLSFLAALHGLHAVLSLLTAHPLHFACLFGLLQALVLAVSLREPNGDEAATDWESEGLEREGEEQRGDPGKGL
UniProt O75155: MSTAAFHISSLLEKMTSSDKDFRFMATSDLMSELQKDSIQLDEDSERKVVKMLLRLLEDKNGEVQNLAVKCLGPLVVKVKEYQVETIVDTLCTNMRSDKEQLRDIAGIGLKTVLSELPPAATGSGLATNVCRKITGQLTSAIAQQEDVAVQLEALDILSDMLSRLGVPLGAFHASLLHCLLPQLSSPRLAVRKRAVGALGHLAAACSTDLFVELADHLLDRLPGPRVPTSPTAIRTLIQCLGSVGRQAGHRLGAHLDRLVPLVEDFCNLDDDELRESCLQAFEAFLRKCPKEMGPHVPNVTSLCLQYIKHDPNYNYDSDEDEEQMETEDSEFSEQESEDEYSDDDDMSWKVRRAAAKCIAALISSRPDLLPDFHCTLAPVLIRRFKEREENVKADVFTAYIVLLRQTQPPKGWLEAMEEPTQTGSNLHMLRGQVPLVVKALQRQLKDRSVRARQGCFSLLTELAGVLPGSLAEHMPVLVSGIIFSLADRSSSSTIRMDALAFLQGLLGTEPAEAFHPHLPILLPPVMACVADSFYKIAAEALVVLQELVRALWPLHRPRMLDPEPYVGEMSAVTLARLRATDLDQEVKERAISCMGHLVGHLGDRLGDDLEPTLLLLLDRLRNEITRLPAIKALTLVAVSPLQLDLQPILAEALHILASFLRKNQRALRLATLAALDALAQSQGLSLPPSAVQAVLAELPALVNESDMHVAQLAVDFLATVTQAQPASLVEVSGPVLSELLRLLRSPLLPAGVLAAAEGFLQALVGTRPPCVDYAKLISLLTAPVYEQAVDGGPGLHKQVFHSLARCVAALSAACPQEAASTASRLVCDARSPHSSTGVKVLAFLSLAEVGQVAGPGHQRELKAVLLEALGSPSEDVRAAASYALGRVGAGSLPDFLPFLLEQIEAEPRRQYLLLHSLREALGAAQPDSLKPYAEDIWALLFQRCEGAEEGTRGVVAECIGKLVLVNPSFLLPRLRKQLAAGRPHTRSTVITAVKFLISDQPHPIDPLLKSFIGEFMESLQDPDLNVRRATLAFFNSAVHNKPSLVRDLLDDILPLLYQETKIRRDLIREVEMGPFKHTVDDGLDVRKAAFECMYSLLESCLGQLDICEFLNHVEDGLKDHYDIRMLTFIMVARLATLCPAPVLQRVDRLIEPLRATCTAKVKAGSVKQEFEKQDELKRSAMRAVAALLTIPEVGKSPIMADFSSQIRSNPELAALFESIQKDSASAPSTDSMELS
UniProt Q9BVC5: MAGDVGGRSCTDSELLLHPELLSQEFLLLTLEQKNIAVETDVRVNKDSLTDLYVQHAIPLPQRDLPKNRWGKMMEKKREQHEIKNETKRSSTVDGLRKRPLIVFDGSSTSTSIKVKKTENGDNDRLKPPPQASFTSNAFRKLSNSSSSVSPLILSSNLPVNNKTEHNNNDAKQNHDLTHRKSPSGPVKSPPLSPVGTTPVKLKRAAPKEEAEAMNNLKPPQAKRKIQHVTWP
UniProt Q9HAS0: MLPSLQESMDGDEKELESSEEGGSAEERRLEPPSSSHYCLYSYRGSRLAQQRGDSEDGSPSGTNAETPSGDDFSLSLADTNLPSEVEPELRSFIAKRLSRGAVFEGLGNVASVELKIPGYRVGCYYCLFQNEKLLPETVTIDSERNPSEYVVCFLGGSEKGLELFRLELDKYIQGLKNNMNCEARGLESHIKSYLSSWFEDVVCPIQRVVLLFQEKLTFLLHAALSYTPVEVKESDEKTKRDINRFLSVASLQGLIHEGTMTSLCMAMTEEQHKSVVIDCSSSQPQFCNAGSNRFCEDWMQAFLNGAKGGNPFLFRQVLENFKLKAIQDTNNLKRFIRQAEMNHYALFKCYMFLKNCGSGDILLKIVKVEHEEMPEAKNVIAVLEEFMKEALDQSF
UniProt Q8IXQ3: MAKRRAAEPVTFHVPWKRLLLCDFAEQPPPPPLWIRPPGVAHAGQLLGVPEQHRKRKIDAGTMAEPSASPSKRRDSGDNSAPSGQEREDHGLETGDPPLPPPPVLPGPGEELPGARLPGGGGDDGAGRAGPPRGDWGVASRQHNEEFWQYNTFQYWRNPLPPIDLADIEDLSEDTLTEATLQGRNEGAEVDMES

Legend:
Assay in all cases: log2 fold change, soluble protein after heating vs DMSO (PISA); higher = thermal stabilisation; K562 cells, 10 uM, 30 min; active = over 0.2 and 3.5 SD of the protein, either way, in both replicates (recomputed)
[1] = compound: CS(=O)(=O)c1ccc(-c2cnc(N)c(C(=O)Nc3ccccc3)n2)cc1
Method in brief: (§1)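 Quantification of soluble protein used TMTpro 16plex LC-MS/MS, with channel sums equalised. Samples were the supernatant after 21,000xg for 90 min of pooled aliquots from K562 cells (2×10^6 cells/mL) treated with 10 μM compound for 30 min, heated for 3 min over 48°C-58°C, and extracted in PBS with 0.5% NP-40 at 4°C. Values, from duplicates, describe thermal stability against control samples on a log2 fold-change scale.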

[2] = compound: C[C@@H](Oc1cc(-c2cnn(C3CCNCC3)c2)cnc1N)c1c(Cl)ccc(F)c1Cl [crizotinib]
Method in brief: as §1

[3] = compound: C[C@@H]1COCCN1C2=NC(=NC(=C2)C3(CC3)S(=O)(=O)C)C4=C5C=CNC5=CC=C4
Method in brief: as §1

[4] = compound: C[C@H](C1=CC=C(C=C1)C(=O)NC2=C3C=CNC3=NC=C2)N
Method in brief: as §1

[5] = compound: C[C@H](Nc1ncnc2nc[nH]c12)c1cc2cccc(Cl)c2c(=O)n1-c1ccccc1 [duvelisib]
Method in brief: as §1

[6] = compound: Cc1cc(Nc2cc(CN3CCOCC3)c3nc(C)c(Cc4ccc(Cl)cc4F)n3n2)n[nH]1 [gandotinib]
Method in brief: as §1

[7] = compound: Cc1cc(Nc2cc(N3CCN(C)CC3)nc(Sc3ccc(NC(=O)C4CC4)cc3)n2)n[nH]1 [tozasertib]
Method in brief: as §1

[8] = compound: Cc1cc(SCc2sc(-c3ccc(C(F)(F)F)cc3)nc2C)ccc1OCC(=O)O
Method in brief: as §1

[9] = compound: Cc1ccc(-n2nc(C(C)(C)C)cc2NC(=O)Nc2ccc(OCCN3CCOCC3)c3ccccc23)cc1 [doramapimod]
Method in brief: as §1

[10] = compound: Cc1ccc(C(=O)N(CCCN)[C@@H](c2nc3cc(Cl)ccc3c(=O)n2Cc2ccccc2)C(C)C)cc1 [ispinesib]
Method in brief: as §1

Measured: log2 fold change

CAPZB (UniProt P47756)
inactive: [1] 0.002 | [2] 0.022 | [3] 0.021 | [4] -0.063 | [5] 0.028 | [6] -0.008 | [7] 0.005 | [8] -0.023 | [9] 0.002 | [10] 0.001

BUD23 isoform 3 (UniProt O43709)
inactive: [1] -0.002 | [2] -0.002 | [3] -0.021 | [4] 0.176 | [5] 0.028 | [6] -0.043 | [7] -0.036 | [8] 0.044 | [9] 0.062 | [10] -0.046

C11orf54 (UniProt Q9H0W9)
inactive: [1] 0.061 | [2] -0.015 | [3] -0.02 | [4] -0.105 | [5] 0.059 | [6] 0.039 | [7] -0.037 | [8] 0.01 | [9] -0.039 | [10] -0.014

C18orf25 (UniProt Q96B23)
inactive: [1] 0.011 | [2] 0.003 | [3] 0.045 | [4] -0.046 | [5] -0.086 | [6] -0.014 | [7] -0.01 | [8] -0.111 | [9] -0.02 | [10] 0

Quoted from the results shown (two entries):
BUD23 isoform 3 (UniProt O43709)
inactive: [1] -0.002 | [2] -0.002 | [3] -0.021 | [4] 0.176 | [5] 0.028 | [6] -0.043 | [7] -0.036 | [8] 0.044 | [9] 0.062 | [10] -0.046

C11orf54 (UniProt Q9H0W9)
inactive: [1] 0.061 | [2] -0.015 | [3] -0.02 | [4] -0.105 | [5] 0.059 | [6] 0.039 | [7] -0.037 | [8] 0.01 | [9] -0.039 | [10] -0.014

(listing goes on)

C12orf29 (UniProt Q8N999)
inactive: [1] -0.019 | [2] 0.025 | [3] -0.04 | [4] 0.014 | [5] 0.053 | [6] 0.05 | [7] -0.035 | [8] -0.088 | [9] 0.015 | [10] 0.024

BUB3 (UniProt O43684)
inactive: [1] 0.008 | [2] 0.034 | [3] -0.004 | [4] -0.013 | [5] 0.032 | [6] 0.016 | [7] -0.01 | [8] -0.012 | [9] -0.003 | [10] 0.012

C1orf43 (UniProt Q9BWL3)
inactive: [1] 0.171

CALR (UniProt P27797)
inactive: [1] -0.002 | [2] 0.078 | [3] -0.092 | [4] 0.056 | [5] -0.043 | [6] -0.01 | [7] 0.02 | [8] 0.019 | [9] 0.007 | [10] 0.014

C9orf78 (UniProt Q9NZ63)
inactive: [1] -0.023 | [2] 0.04 | [3] -0.026 | [4] -0.041 | [5] 0.005 | [6] 0.026 | [7] -0.01 | [8] -0.063 | [9] -0.016 | [10] 0.041

C18orf25 isoform 2 (UniProt Q96B23)
inactive: [1] 0.02 | [2] -0.045 | [3] 0.032 | [4] 0.004 | [5] -0.06 | [6] -0.257 | [7] -0.019 | [8] 0.028 | [9] 0.042

CAB39 (UniProt Q9Y376)
inactive: [1] 0.025 | [2] 0.039 | [3] 0.1 | [4] -0.089 | [5] 0.053 | [6] 0.003 | [7] 0.014 | [8] -0.027 | [9] -0.052 | [10] 0.038

BTF3 (UniProt P20290)
inactive: [1] -0.019 | [2] 0.03 | [3] -0.06 | [4] -0.046 | [5] -0.016 | [6] -0.011 | [7] -0.023 | [8] -0.014 | [9] -0.017 | [10] 0.03

CAMLG (UniProt P49069)
inactive: [1] -0.027 | [2] -0.006 | [3] 0.044 | [4] -0.049 | [5] 0.023 | [6] 0.049 | [7] -0.035 | [8] 0.028 | [9] -0.012 | [10] 0.018

C15orf40 (UniProt Q8WUR7)
inactive: [1] 0.094 | [2] 0.128 | [3] 0.034 | [4] 0.096 | [5] 0.007 | [6] -0.138 | [7] -0.073 | [8] -0.034 | [9] -0.03 | [10] 0.026

CAPRIN1 (UniProt Q14444)
inactive: [1] -0.12 | [2] -0.048 | [3] -0.322 | [4] 0.169 | [5] -0.097 | [6] 0.13 | [7] 0.015 | [8] -0.034 | [9] 0.056 | [10] -0.128

C2CD2L (UniProt O14523)
inactive: [1] 0.114 | [2] -0.029 | [3] 0.024 | [4] -0.009 | [5] 0.016 | [6] 0.009 | [7] -0.047 | [8] -0.027 | [9] 0.035 | [10] -0.084

C5orf51 (UniProt A6NDU8)
inactive: [1] 0.054 | [2] -0.028 | [3] 0.066 | [4] -0.013 | [5] 0.065 | [6] -0.184 | [7] 0.045 | [8] 0.013 | [9] -0.083 | [10] -0.045

CAPZA2 (UniProt P47755)
inactive: [1] -0.026 | [2] -0.017 | [3] 0.075 | [4] -0.025 | [5] 0.008 | [6] -0.043 | [7] 0.045 | [8] 0.033 | [9] -0.038 | [10] 0.025

C12orf73 (UniProt Q69YU5)
inactive: [1] 0.018 | [2] 0.043 | [3] 0.188 | [4] -0.017 | [5] 0.069 | [6] -0.047 | [7] -0.104 | [8] 0.009 | [9] -0.015 | [10] 0.116

C7 (UniProt P10643)
inactive: [1] -0.181 | [2] 0.195 | [3] 0.17 | [4] 0.134 | [5] -0.101 | [6] -0.178 | [7] -0.019 | [8] -0.046 | [9] 0.084

C6orf47 (UniProt O95873)
inactive: [1] -0.023 | [2] -0.002 | [3] 0.036 | [4] 0.01 | [5] -0.027 | [6] 0.121 | [7] -0.012 | [8] -0.107 | [9] -0.019 | [10] -0.129

CACTIN isoform 2 (UniProt Q8WUQ7)
inactive: [1] -0.028 | [2] -0.088 | [3] 0.13 | [4] -0.067 | [5] 0.071 | [6] 0.075 | [7] 0.001 | [8] 0.086 | [9] 0.04

CAPN2 (UniProt P17655)
inactive: [1] 0.023 | [2] -0.07 | [3] 0.015 | [4] -0.023 | [5] 0.045 | [6] -0.053 | [7] -0.059 | [8] -0.046 | [9] 0.007 | [10] 0.018

CAND2 (UniProt O75155)
inactive: [1] 0.034 | [2] 0.031 | [3] 0.068 | [4] -0.028 | [5] 0.001 | [6] 0.008 | [7] -0.045 | [8] -0.03 | [9] 0.101 | [10] -0.01

C2orf49 (UniProt Q9BVC5)
inactive: [1] -0.015 | [2] -0.041 | [3] -0.395 | [4] 0.293 | [5] -0.12 | [6] -0.054 | [7] 0.073 | [8] 0.15 | [9] 0.137 | [10] -0.023

CAPZA1 (UniProt P52907)
inactive: [1] 0 | [2] 0.025 | [3] 0.064 | [4] -0.057 | [5] 0.03 | [6] 0.022 | [7] 0.022 | [8] 0.037 | [9] -0.019 | [10] 0.053

CAPN1 (UniProt P07384)
inactive: [1] -0.009 | [2] 0.061 | [3] 0.009 | [4] -0.109 | [5] 0.045 | [6] 0.037 | [7] -0.023 | [8] -0.028 | [9] -0.023 | [10] 0.066

C8orf76 (UniProt Q96K31)
inactive: [1] 0.012 | [2] 0.026 | [3] 0.049 | [4] -0.021 | [5] -0.027 | [6] 0.059 | [7] -0.042 | [8] -0.074 | [9] 0.009 | [10] 0.135

C1QBP (UniProt Q07021)
inactive: [1] 0.002 | [2] 0.081 | [3] 0.035 | [4] -0.036 | [5] 0.023 | [6] -0.034 | [7] -0.078 | [8] -0.001 | [9] -0.045 | [10] 0.006

C17orf75 (UniProt Q9HAS0)
inactive: [1] 0.065 | [2] -0.007 | [3] -0.05 | [4] -0.025 | [5] 0.008 | [6] 0.074 | [7] 0.072 | [8] -0.014 | [9] 0.049 | [10] -0.047

C9orf40 (UniProt Q8IXQ3)
inactive: [1] -0.047 | [2] 0.076 | [3] -0.079 | [4] -0.055 | [5] 0.106 | [6] 0.031 | [7] -0.041 | [8] -0.023 | [9] 0.054 | [10] 0.012
